Test results taken from paper PMC9097636, “FOXO transcription factors differ in their dynamics and intra/intermolecular interactions” (Current Research in Structural Biology, 2022).

B1: FOXO3 conserved region 3 (CR3, transactivation domain), amino acids 593 to 646 (domain or fragment, UniProt O43524 593-646)
chain: YSTSANLPVMGHEKFPSDLDLDMFNGSLECDMESIIRSELMDADGLDFNFDSLI
B2: FOXO6 conserved region 3 (CR3, transactivation domain), amino acids 418 to 472 (domain or fragment, human, UniProt A8MYZ6 418-472, looked up)
chain: YAAAAAGPLGAAPDRFPADLDLDMFSGSLECDVESIILNDFMDSDEMDFNFDSAL
notes: human FOXO6, Uniprot A8MYZ6, amino acids 418 to 472, CR3; Unlabelled in the titrations; also called FOXO6^CR3; CR3 of FOXO6; source: E. coli BL21-DE3 Star, lysed in 6 M urea, purified (Ni-NTA, TEV cleavage, second Ni-NTA, SEC)

Molecular target: FOXO4 forkhead (FH) domain (human)
Test: NMR titration; 1H,15N HSQC of 50 uM 15N-labelled FH domain, unlabelled CR3 added in trans (25 uM or 50 uM); 50 mM NaH2PO4/Na2HPO4 pH 6.5, 0.04% NaN3, 5 mM DTT; 25 C; read-out chemical shift perturbations and line broadening; both purified

| Binder | binding |
| --- | --- |
| B1 | binds weakly |
| B2 | binds weakly |

Results are given in words; binding and its absence hold for the method and conditions named. Binding can be weak; no strength is given.
